# These are yes or no findings as the source states them, for the method shown. For part of these data: In cells and extracts the contact can be indirect. Some entries that bind do so weakly or less than the wild type. For part of these data: Tags and fused reporters may be left off the sequences shown.
# T1: FLAG-tagged CARF (collaborator of alternative reading frame protein) (human) (UniProt Q9NXV6)
# T1 sequence: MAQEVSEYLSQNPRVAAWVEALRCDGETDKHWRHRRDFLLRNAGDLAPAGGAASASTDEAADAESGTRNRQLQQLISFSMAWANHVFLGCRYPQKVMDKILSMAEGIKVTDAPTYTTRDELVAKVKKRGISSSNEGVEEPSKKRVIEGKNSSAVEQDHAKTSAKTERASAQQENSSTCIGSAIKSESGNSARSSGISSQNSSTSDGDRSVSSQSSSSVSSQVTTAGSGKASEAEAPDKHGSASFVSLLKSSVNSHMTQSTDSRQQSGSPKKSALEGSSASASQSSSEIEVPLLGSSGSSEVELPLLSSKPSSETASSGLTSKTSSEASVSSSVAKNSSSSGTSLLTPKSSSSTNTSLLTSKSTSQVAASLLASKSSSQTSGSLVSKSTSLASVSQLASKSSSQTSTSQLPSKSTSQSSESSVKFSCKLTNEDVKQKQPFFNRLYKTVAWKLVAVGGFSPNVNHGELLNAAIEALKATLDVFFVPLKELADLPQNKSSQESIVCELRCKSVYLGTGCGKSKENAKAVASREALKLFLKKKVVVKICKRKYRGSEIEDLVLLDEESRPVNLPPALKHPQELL
# T2: mKGN–MC–FLAG–CARF (human), Q9NXV6
# T2 chain: T1 sequence
# T3: mKGC–MC–FLAG–CARF (human), Q9NXV6
# T3 chain: T1 sequence
# T4: recombinant FLAG–CARF (TF–CARF–FLAG) (human), Q9NXV6
# T4 chain: T1 sequence
# T5: CARF, endogenous (human (endogenous in 293T)), Q9NXV6
# T5 chain: T1 sequence
# T6: FLAG-tagged CARF (collaborator of alternative reading frame protein) (human), Q9NXV6
# T6 chain: T1 sequence
# T7: FLAG–CARF stably expressed in Flp-In T-Rex 293 cells (human), Q9NXV6
# T7 chain: T1 sequence
# T8: HA-tagged XRN2 (human), Q9H0D6
# T8 chain: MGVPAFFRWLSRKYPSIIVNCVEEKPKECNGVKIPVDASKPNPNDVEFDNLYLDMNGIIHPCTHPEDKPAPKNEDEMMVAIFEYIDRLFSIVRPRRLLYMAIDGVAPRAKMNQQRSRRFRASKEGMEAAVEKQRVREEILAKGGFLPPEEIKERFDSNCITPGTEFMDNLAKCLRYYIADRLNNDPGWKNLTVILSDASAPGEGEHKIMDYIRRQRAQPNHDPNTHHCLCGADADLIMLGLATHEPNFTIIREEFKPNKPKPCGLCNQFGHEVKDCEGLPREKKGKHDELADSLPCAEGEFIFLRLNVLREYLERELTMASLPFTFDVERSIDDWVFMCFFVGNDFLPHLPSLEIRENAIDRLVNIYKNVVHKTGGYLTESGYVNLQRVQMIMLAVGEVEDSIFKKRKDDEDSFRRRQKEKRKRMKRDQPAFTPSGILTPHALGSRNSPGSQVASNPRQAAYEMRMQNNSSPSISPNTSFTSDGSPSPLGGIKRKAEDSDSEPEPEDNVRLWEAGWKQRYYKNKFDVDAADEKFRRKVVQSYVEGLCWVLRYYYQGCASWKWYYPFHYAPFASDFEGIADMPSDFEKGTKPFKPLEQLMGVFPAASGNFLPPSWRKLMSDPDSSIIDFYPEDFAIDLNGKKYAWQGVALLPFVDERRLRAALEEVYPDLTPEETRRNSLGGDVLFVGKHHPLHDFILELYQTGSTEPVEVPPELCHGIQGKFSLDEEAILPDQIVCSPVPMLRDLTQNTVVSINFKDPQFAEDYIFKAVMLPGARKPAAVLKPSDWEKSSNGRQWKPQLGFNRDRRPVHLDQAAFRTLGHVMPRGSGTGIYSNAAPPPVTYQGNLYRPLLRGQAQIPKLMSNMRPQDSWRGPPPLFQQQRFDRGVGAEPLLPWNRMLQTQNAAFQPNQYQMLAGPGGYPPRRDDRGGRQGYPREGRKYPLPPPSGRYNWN
# T9: 5′-3′ exoribonuclease 2 (XRN2), endogenous (human (endogenous in Flp-In T-Rex 293 and 293T)), Q9H0D6
# T9 chain: T8 chain
# B1: HA-tagged truncated XRN2 mutant xN1 (domain or fragment, UniProt Q9H0D6-1 1-680)
# chain: MGVPAFFRWLSRKYPSIIVNCVEEKPKECNGVKIPVDASKPNPNDVEFDNLYLDMNGIIHPCTHPEDKPAPKNEDEMMVAIFEYIDRLFSIVRPRRLLYMAIDGVAPRAKMNQQRSRRFRASKEGMEAAVEKQRVREEILAKGGFLPPEEIKERFDSNCITPGTEFMDNLAKCLRYYIADRLNNDPGWKNLTVILSDASAPGEGEHKIMDYIRRQRAQPNHDPNTHHCLCGADADLIMLGLATHEPNFTIIREEFKPNKPKPCGLCNQFGHEVKDCEGLPREKKGKHDELADSLPCAEGEFIFLRLNVLREYLERELTMASLPFTFDVERSIDDWVFMCFFVGNDFLPHLPSLEIRENAIDRLVNIYKNVVHKTGGYLTESGYVNLQRVQMIMLAVGEVEDSIFKKRKDDEDSFRRRQKEKRKRMKRDQPAFTPSGILTPHALGSRNSPGSQVASNPRQAAYEMRMQNNSSPSISPNTSFTSDGSPSPLGGIKRKAEDSDSEPEPEDNVRLWEAGWKQRYYKNKFDVDAADEKFRRKVVQSYVEGLCWVLRYYYQGCASWKWYYPFHYAPFASDFEGIADMPSDFEKGTKPFKPLEQLMGVFPAASGNFLPPSWRKLMSDPDSSIIDFYPEDFAIDLNGKKYAWQGVALLPFVDERRLRAALEEVYPDLTPEETRRNSLG
# B2: mKGC–MC–XRN2, Q9H0D6-1 1-950 (enzyme)
# chain: T8 chain
# B3: mKGN–MC–XRN2, Q9H0D6-1 1-950 (enzyme)
# chain: T8 chain
# B4: recombinant HA–XRN2 (TF–XRN2–TEV–HA), Q9H0D6-1 1-950 (enzyme)
# chain: T8 chain
# B5: 5′-3′ exoribonuclease 2 (XRN2), endogenous, Q9H0D6-1 1-950 (enzyme)
# chain: T8 chain
# B6: FLAG-tagged CARF (collaborator of alternative reading frame protein), Q9NXV6 1-580 (protein)
# chain: T1 sequence
# B7: CARF, endogenous, Q9NXV6 1-580 (protein)
# chain: T1 sequence
# Tests used:
# [1] = target: T1, FLAG-tagged CARF (collaborator of alternative reading frame protein) (human); assay: co-IP; anti-FLAG immunoprecipitation from TOCARF cells transfected with HA–XRN2 mutants or empty vector, with or without doxycycline (10 ng/ml, 72 h); immunoblot with anti-HA
# [2] = target: T2, mKGN–MC–FLAG–CARF (human), Q9NXV6; assay: split reporter; mKG reporter system (MBL) in Flp-In T-Rex 293 cells transfected with phmKGN–MC–FLAG–CARF and phmKGC–MC–XRN2; fixed 48 h after transfection; fluorescence microscopy; settings: remark: other sources report otherwise
# [3] = target: T3, mKGC–MC–FLAG–CARF (human), Q9NXV6; assay: split reporter; mKG reporter system, the fragments exchanged (phmKGC-MC-FLAG-CARF and phmKGN-MC-XRN2); data not shown; settings: remark: other sources report otherwise
# [4] = target: T4, recombinant FLAG–CARF (TF–CARF–FLAG) …; assay: pull-down; isolated recombinant TF–CARF–FLAG and TF–XRN2–TEV–HA mixed, pulled down with anti-FLAG conjugated agarose resin; both purified; settings: remark: other sources report otherwise
# [5] = target: T5, CARF, endogenous (human (endogenous in …)); assay: co-IP; endogenous proteins from 293T cell lysate (1 mg) in buffer A; anti-CARF or anti-XRN2 on Dynabeads protein G, 3 h at 4°C; normal rabbit IgG as control; immunoblot; settings: remark: other sources report otherwise
# [6] = target: T6, FLAG-tagged CARF (collaborator of …); assay: co-IP; anti-FLAG immunoprecipitation from TOCARF cells induced with 0, 0.1 or 10 ng/ml doxycycline (Flp-In T-Rex 293 cells as control); immunoblot; settings: remark: other sources report otherwise
# [7] = target: T7, FLAG–CARF stably expressed in Flp-In …; assay: co-IP; anti-FLAG immunoprecipitation from Flp-In T-Rex 293 cells stably expressing FLAG–CARF or FLAG–fibrillarin; immunoprecipitates treated without or with RNase A; immunoblot; settings: remark: other sources report otherwise
# [8] = target: T8, HA-tagged XRN2 (human), Q9H0D6; assay: co-IP; HA–XRN2 as bait: TOCARF cells with or without 100 ng/ml doxycycline, transfected with HA–XRN2; anti-HA and protein G–Sepharose, 4 h at 4°C, washed in buffer A; immunoblot; settings: remark: other sources report otherwise
# [9] = target: T9, 5′-3′ exoribonuclease 2 (XRN2), …; assay: co-IP; endogenous proteins from 293T cell lysate (1 mg) in buffer A; anti-CARF or anti-XRN2 on Dynabeads protein G, 3 h at 4°C; normal rabbit IgG as control; immunoblot; settings: remark: other sources report otherwise
binder,measurement,setting,value
B1,binding,[1],binds
B2,binding,[2],binds
B3,binding,[3],binds
B4,binding,[4],binds
B5,binding,[5],binds
same,binding,[6],binds
same,binding,[7],binds
B6,binding,[8],binds
B7,binding,[9],binds

# Reference: PMC4666357
